Columns and labels:
[1] = system: histone deacetylase (HDAC); assay: Acetylated histone levels in mouse tissues after IP injection (Western blot of isolated histones); assay type: in vivo; conditions: mice, three injections at 1 hour intervals, SAHA 100 mg/kg, pyroxamide 200 mg/kg, anti-AcH3/AcH4 Western blot
Method: FIG. 1 is a scan of a Western blot and Coomassie stained gel indicating levels of acetylated histone (αAcH3) at the indicated timepoints following treatment with vehicle (DMSO) or three doses of SAHA (100 mg/kg/hr).
FIG. […]
Mice (2 mice per condition) were injected by intraperitoneal injection (IP) with either SAHA (100 mg/kg), pyroxamide (200 mg/kg), or vehicle (dimethylsulfoxide). Each mouse was administered three injections at the indicated dose at 1 hour intervals. After the final IP injection tissues (brain, spleen or liver) were isolated at the times indicated. Histones were isolated from tissues essentially as described by Yoshida et al., (1990) J. Biol. Chem. 265:17174-17179. Equal amounts of histones (1 μg) were electrophoresed on 15% SDS-polyacrylamide gels and transferred to Hybond-P filters (Amersham). Filters were blocked with 3% milk and probed with a rabbit purified polyclonal anti-acetylated histone H4 antibody (αAc-H4) and anti-acetylated histone H3 antibody (αAc-H3) (Upstate Biotechnology, Inc.). Levels of acetylated histone were visualized using a horseradish peroxidase-conjugated goat anti-rabbit antibody (1:5000) and the SuperSignal chemiluminescent substrate (Pierce). As a loading control for the histone proteins, parallel gels were run and stained with Coomassie Blue (CB).

tumor growth = conditions: rodents; cited from earlier work
[2] = system: carcinogen-induced (N-methylnitrosourea) mammary tumors; conditions: rats, SAHA in diet over 130 days; cited from earlier work

For `O=C(CCCCCCC(=O)Nc1ccccc1)NO` [SAHA, suberoylanilide hydroxamic acid], the “inhibition of HDAC activity / accumulation of acetylated histones in the brain” value [1] is given as “significantly inhibit HDAC activity causing the accumulation of acetylated histones in the brain”, the “inhibition of tumor growth” value (tumor growth) is given as “inhibits tumor growth in rodents” and the “inhibition of development and continued growth of mammary tumors” value [2] is given as “effective at inhibiting the development and continued growth of carcinogen-induced (N-methylnitrosourea) mammary tumors in rats”.
